Source: publication doi:10.1101/2022.02.24.481869
Read-outs that look alike come from different tables or passages of the source. Results are given in words; binding and its absence hold for the method and conditions named. Some binding calls cover weakened binding; strength is not graded here. Sequences can lack the tags named with a protein.

The chains behind the UniProt entries cited, without tags or fusion partners.
UniProt P21462: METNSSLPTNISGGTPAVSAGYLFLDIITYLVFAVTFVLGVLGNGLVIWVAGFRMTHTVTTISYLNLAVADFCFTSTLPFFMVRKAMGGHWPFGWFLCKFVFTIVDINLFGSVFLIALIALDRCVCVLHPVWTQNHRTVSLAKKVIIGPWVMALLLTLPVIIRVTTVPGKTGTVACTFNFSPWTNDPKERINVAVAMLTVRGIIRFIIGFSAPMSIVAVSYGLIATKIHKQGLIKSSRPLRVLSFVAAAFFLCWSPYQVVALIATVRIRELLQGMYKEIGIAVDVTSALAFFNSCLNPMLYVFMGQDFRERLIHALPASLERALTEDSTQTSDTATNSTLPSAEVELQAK
UniProt P25090: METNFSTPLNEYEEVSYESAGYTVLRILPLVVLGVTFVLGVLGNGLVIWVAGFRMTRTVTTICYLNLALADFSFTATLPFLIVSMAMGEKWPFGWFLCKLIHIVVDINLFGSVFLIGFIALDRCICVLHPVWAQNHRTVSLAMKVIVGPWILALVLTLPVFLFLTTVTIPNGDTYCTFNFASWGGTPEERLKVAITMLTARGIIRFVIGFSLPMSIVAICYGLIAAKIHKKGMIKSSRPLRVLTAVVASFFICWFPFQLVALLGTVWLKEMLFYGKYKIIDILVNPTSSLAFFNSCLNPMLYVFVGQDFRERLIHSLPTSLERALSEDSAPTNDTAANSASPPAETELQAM

Assays:
Assay in all cases: AlphaScreen or HTRF
[1] = target: formyl peptide receptor 1 (FPR1), SNAP-tagged, on cells (UniProt P21462)
[2] = target: formyl peptide receptor 2 (FPR2), SNAP-tagged, on cells (UniProt P25090)
[3] = target: formyl peptide receptor 1 (FPR1), SNAP-tagged, on cells (UniProt P21462); remark: listed apart in the source
[4] = target: formyl peptide receptor 2 (FPR2), SNAP-tagged, on cells (UniProt P25090); remark: listed apart in the source

Measured: binding

B1: FAM3 metabolism regulating signaling molecule D (FAM3D), XL665-tagged (ligand, UniProt Q96BQ1 26-224)
chain: YMSFSMKTIRLPRWLAASPTKEIQVKKYKCGLIKPCPANYFAFKICSGAANVVGPTMCFEDRMIMSPVKNNVGRGLNIALVNGTTGAVLGQKAFDMYSGDVMHLVKFLKEIPGGALVLVASYDDPGTKMNDESRKLFSDLGSSYAKQLGFRDSWVFIGAKDLRGKSPFEQFLKNSPDTNKYEGWPELLEMEGCMPPKPF
modifications: XL665 label (position not given)
binds: all assays above
